PubChem BioAssay AID1259405, NCATS | 2018

Purpose: 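Mouse-designed siRNAs used to find CHO productivity engineering targets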 (primary screen)
Cell system: Chinese hamster CHO-K1 ovary cells with stable secreted eGFP expression
Reagent: single siRNA against mouse genes, 0.8 pmol siRNA per well (2 µl of 400 nM stock)
Time to read-out: 3 days
Read-out: 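Percent of the per-plate non-targeting control median for intracellular GFP per well by laser scanning cytometry and for cell viability by ATP luminescence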
Scale: GFP, % of control: higher = more GFP per well, higher productivity; viability (ATP), % of control: higher = more viable cells (more ATP)
Hit rule: 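Called active when intracellular GFP, relative to negative control, is at or above 120%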
The deposit covers about 50,000 reagents; this is an unselected part. About 4,000 of them (8%) count as active. 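Mouse siRNA library applied to hamster cells; one well for each siRNA.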 The numbers tell different reagents against one gene apart. Reagent sequences are not shown.

target gene	reagent no.	GFP, % of control	viability (ATP), % of control	activity call
1700001G17Rik (RIKEN cDNA 1700001G17 gene)	1	111	89.8	inactive
1700001G17Rik (RIKEN cDNA 1700001G17 gene)	2	45.4	53.9	inactive
1700001G17Rik (RIKEN cDNA 1700001G17 gene)	3	88.4	79	inactive
Arhgap31 (Rho GTPase activating protein 31)	1	86.2	66.5	inactive
Arhgap31 (Rho GTPase activating protein 31)	2	67.6	75.1	inactive
Arhgap31 (Rho GTPase activating protein 31)	3	85.9	70.1	inactive
Uqcrc1 (ubiquinol-cytochrome c reductase core protein 1)	1	59.9	91.4	inactive
Uqcrc1 (ubiquinol-cytochrome c reductase core protein 1)	2	47.4	51.7	inactive
Uqcrc1 (ubiquinol-cytochrome c reductase core protein 1)	3	91.9	68.9	inactive
Sec14l3 (SEC14-like lipid binding 3)	1	40.7	54.5	inactive
Sec14l3 (SEC14-like lipid binding 3)	2	80.2	85.7	inactive
Sec14l3 (SEC14-like lipid binding 3)	3	48.7	66.5	inactive
Psmb8	1	122	121	active
Psmb8	2	54.6	46	inactive
Psmb8	3	71.2	85.2	inactive
Gtf2e1	1	71.3	55.6	inactive
Gtf2e1	2	100	91.9	inactive
Get4 (golgi to ER traffic protein 4)	1	117	94.9	inactive
Get4 (golgi to ER traffic protein 4)	2	118	112	inactive
Get4 (golgi to ER traffic protein 4)	3	109	78.6	inactive
Nr1i3 (nuclear receptor subfamily 1, group I, member 3)	1	34.3	40	inactive
Nr1i3 (nuclear receptor subfamily 1, group I, member 3)	2	143	94	active
Pcnx3 (pecanex homolog 3)	1	77.4	32.4	inactive
Pcnx3 (pecanex homolog 3)	2	68.7	73.2	inactive
Pcnx3 (pecanex homolog 3)	3	77.2	51.8	inactive
Scfd1 (Sec1 family domain containing 1)	1	150	86.7	active
Scfd1 (Sec1 family domain containing 1)	2	83	58.7	inactive
Scfd1 (Sec1 family domain containing 1)	3	58	78.1	inactive
Lrrc8c (leucine rich repeat containing 8 family, member C)	1	68.5	90.2	inactive
Lrrc8c (leucine rich repeat containing 8 family, member C)	2	102	100	inactive
Lrrc8c (leucine rich repeat containing 8 family, member C)	3	83.7	82.7	inactive
Aldh5a1 (aldhehyde dehydrogenase family 5, subfamily A1)	1	105	102	inactive
Aldh5a1 (aldhehyde dehydrogenase family 5, subfamily A1)	2	76	76.4	inactive
Aldh5a1 (aldhehyde dehydrogenase family 5, subfamily A1)	3	92.3	91.5	inactive
Zfp747l1 (zinc finger protein 747 like 1)	1	112	73.8	inactive
Zfp747l1 (zinc finger protein 747 like 1)	2	60	80.7	inactive
Zfp747l1 (zinc finger protein 747 like 1)	3	67.6	89.5	inactive
Cplx3 (complexin 3)	1	54	76	inactive
Cplx3 (complexin 3)	2	42.2	71.3	inactive
Cplx3 (complexin 3)	3	77.9	82.2	inactive
Zdhhc21 (zinc finger, DHHC domain containing 21)	1	67.6	70	inactive
Zdhhc21 (zinc finger, DHHC domain containing 21)	2	87	60.4	inactive
Zdhhc21 (zinc finger, DHHC domain containing 21)	3	60.3	66.6	inactive
Shq1 (SHQ1 homolog (S. cerevisiae))	1	91.6	73.7	inactive
Shq1 (SHQ1 homolog (S. cerevisiae))	2	86.4	55.7	inactive
Shq1 (SHQ1 homolog (S. cerevisiae))	3	78	62.1	inactive
Klhdc4 (kelch domain containing 4)	1	64.1	80.8	inactive
Klhdc4 (kelch domain containing 4)	2	79	46.8	inactive
Klhdc4 (kelch domain containing 4)	3	107	83.6	inactive
Naip1 (NLR family, apoptosis inhibitory protein 1)	1	99.9	91.7	inactive
Naip1 (NLR family, apoptosis inhibitory protein 1)	2	115	77.6	inactive
Naip1 (NLR family, apoptosis inhibitory protein 1)	3	73.7	64.8	inactive
Lonrf3 (LON peptidase N-terminal domain and ring finger 3)	1	86.9	84	inactive
Lonrf3 (LON peptidase N-terminal domain and ring finger 3)	2	94.2	78.1	inactive
Lonrf3 (LON peptidase N-terminal domain and ring finger 3)	3	70.1	73.4	inactive
Tbc1d10b (TBC1 domain family, member 10b)	1	104	118	inactive
Tbc1d10b (TBC1 domain family, member 10b)	2	60.7	49	inactive
Tbc1d10b (TBC1 domain family, member 10b)	3	60.9	54.1	inactive
Fhip1a (FHF complex subunit HOOK interacting protein 1A)	1	73.1	55	inactive
Fhip1a (FHF complex subunit HOOK interacting protein 1A)	2	79.7	69.6	inactive
Fhip1a (FHF complex subunit HOOK interacting protein 1A)	3	79.3	83	inactive
Psph (phosphoserine phosphatase)	1	110	105	inactive
Psph (phosphoserine phosphatase)	2	30.8	25	inactive
Psph (phosphoserine phosphatase)	3	73	75.6	inactive
Pmf1 (polyamine-modulated factor 1)	1	75.9	61.3	inactive
Pmf1 (polyamine-modulated factor 1)	2	77	61.2	inactive
Pmf1 (polyamine-modulated factor 1)	3	46.5	78.2	inactive
Med29 (mediator complex subunit 29)	1	68.2	70.1	inactive
Med29 (mediator complex subunit 29)	2	81.8	71.8	inactive
Med29 (mediator complex subunit 29)	3	92.9	86.6	inactive
Rai14 (retinoic acid induced 14)	1	57	78.3	inactive
Rai14 (retinoic acid induced 14)	2	60.1	74.7	inactive
Rai14 (retinoic acid induced 14)	3	52.7	54.1	inactive
Cimap3 (ciliary microtubule associated protein 3)	1	48.4	18.1	inactive
Cimap3 (ciliary microtubule associated protein 3)	2	70.9	93.3	inactive
Cimap3 (ciliary microtubule associated protein 3)	3	109	125	inactive
Fkbp5 (FK506 binding protein 5)	1	49.8	67.4	inactive
Fkbp5 (FK506 binding protein 5)	2	79	98.3	inactive
Fkbp5 (FK506 binding protein 5)	3	118	113	inactive
Cacna1e (calcium channel, voltage-dependent, R type, alpha 1E subunit)	1	74.2	94.2	inactive
Cacna1e (calcium channel, voltage-dependent, R type, alpha 1E subunit)	2	78.3	90.1	inactive
Cacna1e (calcium channel, voltage-dependent, R type, alpha 1E subunit)	3	76.1	63.6	inactive
Rnf38 (ring finger protein 38)	1	112	51.9	inactive
Rnf38 (ring finger protein 38)	2	132	68.7	active
Rnf38 (ring finger protein 38)	3	51.8	61.5	inactive
Calu (calumenin)	1	82.5	97.1	inactive
Calu (calumenin)	2	63.8	78.9	inactive
U2surp (U2 snRNP-associated SURP domain containing)	1	125	113	active
U2surp (U2 snRNP-associated SURP domain containing)	2	101	101	inactive
U2surp (U2 snRNP-associated SURP domain containing)	3	99.9	86.4	inactive
G3bp2 (G3BP stress granule assembly factor 2)	1	65.9	77.9	inactive
G3bp2 (G3BP stress granule assembly factor 2)	2	56.3	77.8	inactive
G3bp2 (G3BP stress granule assembly factor 2)	3	69.3	40.8	inactive
Tox (thymocyte selection-associated high mobility group box)	1	99.9	89	inactive
Tox (thymocyte selection-associated high mobility group box)	2	49.6	74.9	inactive
Tox (thymocyte selection-associated high mobility group box)	3	109	124	inactive
Arl4c (ADP-ribosylation factor-like 4C)	1	54	57.9	inactive
Arl4c (ADP-ribosylation factor-like 4C)	2	77	82.4	inactive
Arl4c (ADP-ribosylation factor-like 4C)	3	90.5	77.6	inactive
Rhobtb3 (Rho-related BTB domain containing 3)	1	75.1	77.3	inactive
Rhobtb3 (Rho-related BTB domain containing 3)	2	75.5	83.4	inactive
Rhobtb3 (Rho-related BTB domain containing 3)	3	74.1	92.2	inactive
Lect2 (leukocyte cell-derived chemotaxin 2)	1	140	122	active
Lect2 (leukocyte cell-derived chemotaxin 2)	2	49.7	55	inactive
Ly6c1 (lymphocyte antigen 6 family member C1)	1	81.9	80.2	inactive
Ly6c1 (lymphocyte antigen 6 family member C1)	2	66.7	68.3	inactive
Ly6c1 (lymphocyte antigen 6 family member C1)	3	85.1	68.1	inactive

Reagents listed so far with an active call, once more:
target gene	reagent no.	GFP, % of control	viability (ATP), % of control	activity call
Psmb8	1	122	121	active
Nr1i3 (nuclear receptor subfamily 1, group I, member 3)	2	143	94	active
Scfd1 (Sec1 family domain containing 1)	1	150	86.7	active
Rnf38 (ring finger protein 38)	2	132	68.7	active
U2surp (U2 snRNP-associated SURP domain containing)	1	125	113	active
Lect2 (leukocyte cell-derived chemotaxin 2)	1	140	122	active
